From the supplement of paper PMC4635364
Structures can show the parent of a compound that is named as a salt. The list shows a part of the results. Single values are uncertain here, since repeats match poorly.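 Human fetal ventral-midbrain neural progenitor line ReNCell VM, differentiated without mitogens. Images stained for doublecortin (early neurons) or tyrosine hydroxylase (dopaminergic neurons) were scored by blinded raters against untreated wells (0 = no change). Repeats and both raters were averaged, and compounds averaging 2 or higher were picked as hits for retesting.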

Assays:
ReNCell VM [1] = test: neuronal differentiation score (DCX+ cell fraction vs untreated, manual image score) (score (-3 to 3)); higher = more neuronal differentiation; settings: 2 uM, 2 weeks
ReNCell VM [2] = test: dopaminergic neuron differentiation score (TH+ cell fraction vs untreated, manual image score) (score (0 to 3)); higher = more TH+ dopaminergic neuron differentiation; settings: 2 uM, 4 weeks, BDNF 10 ng/ml + GDNF 10 ng/ml

For CN1C2CCC1CC(OC(=O)[C@H]1CC[C@](C(=O)OC3CC4CCC(C3)N4C)(c3ccccc3)c3ccccc31)C2 (stereo partly drawn) [belladonnine], the neuronal differentiation score (ReNCell VM [1]; library: Natural) was inactive: 0 and the “dopaminergic neuron differentiation score” value (ReNCell VM [2]; library: Natural) was inactive: 0.
NC(=O)CN1CCCC1=O was tested, and the neuronal differentiation score (ReNCell VM [1]; library: Spectrum) was inactive: 0 and the “dopaminergic neuron differentiation score” value (ReNCell VM [2]; library: Spectrum) was inactive: 0.
In the case of C[C@]12CC[C@H]3[C@@H](CCC4=CC(=O)CC[C@@H]43)[C@@H]1CC[C@@H]2O [Nandrolone], the neuronal differentiation score (ReNCell VM [1]; library: Prestwick) is reported as inactive: 0 and the “dopaminergic neuron differentiation score” value (ReNCell VM [2]; library: Prestwick) is reported as inactive: 0.
With O=[N+]([O-])c1ccc2nc(N3CCNCC3)ccc2c1 [Quipazine, 6-nitro-, maleate] the neuronal differentiation score (ReNCell VM [1]; library: LOPAC) was inactive: 0 and the “dopaminergic neuron differentiation score” value (ReNCell VM [2]; library: LOPAC) was inactive: 0.
With C[C@]12COC(=O)C[C@@H]1CC[C@@H]1[C@@H]2CC[C@@]2(C)[C@H]1CC[C@]2(C)O [Oxandrolone] the neuronal differentiation score (ReNCell VM [1]; library: Prestwick) was inactive: 0 and the “dopaminergic neuron differentiation score” value (ReNCell VM [2]; library: Prestwick) was inactive: 0.
O=C(O)CC[N+](=O)[O-] was tested, and the neuronal differentiation score (ReNCell VM [1]; library: Spectrum) was inactive: 0 and the “dopaminergic neuron differentiation score” value (ReNCell VM [2]; library: Spectrum) was inactive: 0.
For CC(C)(C)NCC(O)COc1cccc2[nH]c(C#N)cc12 (stereo not drawn) [Cyanopindolol hemifumarate], the neuronal differentiation score (ReNCell VM [1]; library: Tocriscreen) was inactive: 0 and the “dopaminergic neuron differentiation score” value (ReNCell VM [2]; library: Tocriscreen) was inactive: 0.
With NC1CCc2cc(O)c(O)cc2C1 (stereo not drawn) [6,7-ADTN hydrobromide] the neuronal differentiation score (ReNCell VM [1]; library: LOPAC) was inactive: 0 and the “dopaminergic neuron differentiation score” value (ReNCell VM [2]; library: LOPAC) was inactive: 0.
With C[C@H]1CC[C@]2(NC1)O[C@H]1C[C@H]3[C@@H]4CC[C@H]5C[C@@H](O[C@@H]6O[C@H](CO)[C@H](O[C@@H]7O[C@H](CO)[C@@H](O)[C@H](O[C@@H]8OC[C@@H](O)[C@H](O)[C@H]8O)[C@H]7O[C@@H]7O[C@H](CO)[C@@H](O)[C@H](O)[C@H]7O)[C@H](O)[C@H]6O)CC[C@]5(C)[C@H]4CC[C@]3(C)[C@H]1[C@@H]2C the neuronal differentiation score (ReNCell VM [1]; library: Spectrum) was inactive: 0 and the “dopaminergic neuron differentiation score” value (ReNCell VM [2]; library: Spectrum) was inactive: 0.
In the case of CN(C(=O)Cc1ccc(Cl)c(Cl)c1)C(CN1CCCC1)c1cccc(OCC(=O)O)c1 (stereo not drawn) [ICI 204,448 hydrochloride], the neuronal differentiation score (ReNCell VM [1]; library: LOPAC) is reported as inactive: 0 and the “dopaminergic neuron differentiation score” value (ReNCell VM [2]; library: LOPAC) is reported as inactive: 0.
C=C1C2CC3(C4C[C@H]5C6(C(O)CC[C@@]5(C)C[N@+]([O-])(CC)[C@H]46)[C@@H]3CC2=O)[C@@H]1O (stereo partly drawn) [songorine n-oxide] was tested, and the neuronal differentiation score (ReNCell VM [1]; library: Natural) was inactive: 0 and the “dopaminergic neuron differentiation score” value (ReNCell VM [2]; library: Natural) was inactive: 0.
In the case of CC1(C)S[C@@H]2[C@H](N)C(=O)N2[C@H]1C(=O)O [6-aminopenicillanic acid], the neuronal differentiation score (ReNCell VM [1]; library: Natural) is reported as inactive: 0 and the “dopaminergic neuron differentiation score” value (ReNCell VM [2]; library: Natural) is reported as inactive: 0.
For CN1[C@@H]2CC[C@H]1C[C@@H](OC(=O)c1cc(Cl)cc(Cl)c1)C2, the neuronal differentiation score (ReNCell VM [1]; library: Tocriscreen) was inactive: 0 and the “dopaminergic neuron differentiation score” value (ReNCell VM [2]; library: Tocriscreen) was inactive: 0.
With C=C(C)[C@@H]1[C@H]2OC(=O)[C@@H]1[C@]1(O)C[C@H]3O[C@]34C(=O)O[C@H]2[C@]14C the neuronal differentiation score (ReNCell VM [1]; library: Spectrum) was inactive: 0 and the “dopaminergic neuron differentiation score” value (ReNCell VM [2]; library: Spectrum) was inactive: 0.
For C=C(C)[C@H]1CN[C@H](C(=O)O)[C@H]1CC(=O)O, the neuronal differentiation score (ReNCell VM [1]; library: Spectrum) was inactive: 0 and the “dopaminergic neuron differentiation score” value (ReNCell VM [2]; library: Spectrum) was inactive: 0.
In the case of CCCN(CCC)[C@H]1CCc2c(F)ccc(O)c2C1 [S(-)-UH-301 hydrochloride], the neuronal differentiation score (ReNCell VM [1]; library: LOPAC) is reported as inactive: 0 and the “dopaminergic neuron differentiation score” value (ReNCell VM [2]; library: LOPAC) is reported as inactive: 0.
For COc1ccc2c(c1)[nH]c1c(C)nccc12 [harmine], the neuronal differentiation score (ReNCell VM [1]; library: Natural) was inactive: 0 and the “dopaminergic neuron differentiation score” value (ReNCell VM [2]; library: Natural) was inactive: 0.
O=C(O)C1Cc2[nH]cnc2C(c2cccnc2)N1 (stereo not drawn) was tested, and the neuronal differentiation score (ReNCell VM [1]; library: Natural) was inactive: 0 and the “dopaminergic neuron differentiation score” value (ReNCell VM [2]; library: Natural) was inactive: 0.
CS(=N)(=O)CC[C@H](N)C(=O)O (stereo partly drawn) [L-Methionine sulfoximine] was tested, and the neuronal differentiation score (ReNCell VM [1]; library: LOPAC) was inactive: 0 and the “dopaminergic neuron differentiation score” value (ReNCell VM [2]; library: LOPAC) was inactive: 0.
C[C@]12CCC(=O)C=C1C=C[C@@H]1[C@@H]2CC[C@@]2(C)[C@H]1CC[C@@]2(O)CCC(=O)O was tested, and the neuronal differentiation score (ReNCell VM [1]; library: Spectrum) was inactive: 1 and the “dopaminergic neuron differentiation score” value (ReNCell VM [2]; library: Spectrum) was inactive: 0.
With CC[C@@]1(O)C(=O)OCc2c1cc1n(c2=O)Cc2cc3ccccc3nc2-1 [(S)-(+)-Camptothecin] the neuronal differentiation score (ReNCell VM [1]; library: LOPAC) was inactive: 0 and the “dopaminergic neuron differentiation score” value (ReNCell VM [2]; library: LOPAC) was inactive: 0.
With CCOC(=O)c1ncn2c1CN(C)C(=O)c1cc(N=[N+]=[N-])ccc1-2 the neuronal differentiation score (ReNCell VM [1]; library: Tocriscreen) was inactive: 0 and the “dopaminergic neuron differentiation score” value (ReNCell VM [2]; library: Tocriscreen) was inactive: 0.
In the case of CC[C@@H](C)C(=O)O[C@H]1[C@H](O)[C@H]2[C@@H](CN3C[C@@H](C)CC[C@H]3[C@@]2(C)O)[C@@H]2C[C@]34O[C@]5(O)[C@@H](OC(=O)[C@@](C)(O)CC)CC[C@@]3(C)[C@@H]5[C@@H](OC(C)=O)[C@@H](OC(C)=O)[C@H]4[C@@]21O [Protoveratrine A], the neuronal differentiation score (ReNCell VM [1]; library: Phytochemical) is reported as inactive: 0 and the “dopaminergic neuron differentiation score” value (ReNCell VM [2]; library: Phytochemical) is reported as inactive: 0.
C[C@H]1CC[C@]2(NC1)O[C@H]1C[C@H]3[C@@H]4CC[C@H]5C[C@@H](O)CC[C@]5(C)[C@H]4CC[C@]3(C)[C@H]1[C@@H]2C was tested, and the neuronal differentiation score (ReNCell VM [1]; library: Spectrum) was inactive: 0 and the “dopaminergic neuron differentiation score” value (ReNCell VM [2]; library: Spectrum) was inactive: 0.
